In paper PMC12521541, “A novel D-peptide modulates DCLK1 gelsolin interactions, reducing PDAC tumor growth” (Scientific Reports, 2025):
No constants are given. Whether binding was seen depends on the method and setting. Some results given as binding are weak or reduced against the parent protein; the word gives no strength.

Chains of the proteins cited; added tags and fusions are not shown. Residues count along the entry.
UniProt P06396, residues 28-782: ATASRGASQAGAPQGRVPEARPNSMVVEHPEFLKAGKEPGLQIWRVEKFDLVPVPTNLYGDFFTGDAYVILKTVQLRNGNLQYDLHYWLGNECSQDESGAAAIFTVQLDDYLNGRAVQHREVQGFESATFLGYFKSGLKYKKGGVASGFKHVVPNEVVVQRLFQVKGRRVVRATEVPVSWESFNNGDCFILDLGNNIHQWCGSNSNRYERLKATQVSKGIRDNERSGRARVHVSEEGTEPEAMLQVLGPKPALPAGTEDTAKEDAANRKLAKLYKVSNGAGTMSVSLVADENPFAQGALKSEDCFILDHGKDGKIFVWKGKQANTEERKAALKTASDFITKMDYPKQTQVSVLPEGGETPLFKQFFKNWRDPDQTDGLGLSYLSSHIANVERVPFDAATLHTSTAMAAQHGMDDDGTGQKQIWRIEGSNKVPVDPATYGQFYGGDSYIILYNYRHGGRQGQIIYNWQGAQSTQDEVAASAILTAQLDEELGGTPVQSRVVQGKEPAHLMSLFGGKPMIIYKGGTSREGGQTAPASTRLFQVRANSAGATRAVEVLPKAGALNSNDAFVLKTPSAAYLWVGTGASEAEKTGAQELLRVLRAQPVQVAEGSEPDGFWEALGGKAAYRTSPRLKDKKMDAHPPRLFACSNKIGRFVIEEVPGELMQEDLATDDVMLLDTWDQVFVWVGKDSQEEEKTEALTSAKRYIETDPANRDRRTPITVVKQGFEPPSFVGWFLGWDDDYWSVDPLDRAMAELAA

How the values were obtained:
[1] = biological target: T1, human DCLK1 isoform 4 (beta-short) (human) (UniProt O15075); test: ELISA; DCLK1 isoform 4 coated on Immulon 2HB plate in 0.1 M NaHCO3 pH 8.6, overnight 4 C; blocked with 1% gelatin in TTBS; gradient of gelsolin added at RT, detected with anti-gelsolin antibody; both purified
T1 sequence: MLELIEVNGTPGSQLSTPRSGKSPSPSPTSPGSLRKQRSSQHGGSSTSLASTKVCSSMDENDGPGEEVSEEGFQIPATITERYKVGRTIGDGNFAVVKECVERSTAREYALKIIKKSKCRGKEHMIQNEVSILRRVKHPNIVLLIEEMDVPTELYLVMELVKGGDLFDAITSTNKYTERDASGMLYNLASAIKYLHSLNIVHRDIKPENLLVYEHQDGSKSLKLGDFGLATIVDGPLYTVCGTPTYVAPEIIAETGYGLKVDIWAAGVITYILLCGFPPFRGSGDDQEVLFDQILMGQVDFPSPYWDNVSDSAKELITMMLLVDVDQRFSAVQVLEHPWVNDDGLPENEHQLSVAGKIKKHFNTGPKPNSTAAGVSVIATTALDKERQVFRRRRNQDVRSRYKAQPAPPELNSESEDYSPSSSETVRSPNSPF

[2] = biological target: T1, human DCLK1 isoform 4 (beta-short) (human); test: ELISA; competition: DCLK1 isoform 4 coated; gelsolin or FGF19 added with D-peptide 1, D-peptide 3, D-peptide 5 or the CBT-15 peptide (printed as 20 mg/well); RT; bound gelsolin or FGF19 immunodetected; both purified

binding [1]: binds
binding [2]: binds
Substance: plasma gelsolin (from UniProt P06396 28-782)
